Results from paper PMC4184701 (Pharmacology Research & Perspectives, 2014).

Assay: Reaction with peroxyl radicals, AIBN-initiated autoxidation of styrene (oxygen uptake)
Conditions: autoxidation of styrene in chlorobenzene, 30°C

Compound	n, number of radicals trapped by each antioxidant molecule
CCN(Cc1ccccc1)Cc1ccc(-c2cc3cc(O)c(O)cc3oc2=O)cc1 [AP2469, 3-{4-[(Benzylethylamino)-methyl]phenyl}-6,7-dihydroxychromen-2-one]	1.9 ± 0.2
Oc1ccccc1O [Catechol]	2.0 ± 0.2
O=c1c(O)c(-c2ccc(O)c(O)c2)oc2cc(O)cc(O)c12 [Quercetin]	2.1 ± 0.2
